Reference: patent US9441223
Construct, isoform or probe ends are uncertain for at least one entry. Where cells or extracts were used, other partners may take part.

Amino acid sequences for entries named in this document (tags omitted).
UniProt Q921F2, whole entry: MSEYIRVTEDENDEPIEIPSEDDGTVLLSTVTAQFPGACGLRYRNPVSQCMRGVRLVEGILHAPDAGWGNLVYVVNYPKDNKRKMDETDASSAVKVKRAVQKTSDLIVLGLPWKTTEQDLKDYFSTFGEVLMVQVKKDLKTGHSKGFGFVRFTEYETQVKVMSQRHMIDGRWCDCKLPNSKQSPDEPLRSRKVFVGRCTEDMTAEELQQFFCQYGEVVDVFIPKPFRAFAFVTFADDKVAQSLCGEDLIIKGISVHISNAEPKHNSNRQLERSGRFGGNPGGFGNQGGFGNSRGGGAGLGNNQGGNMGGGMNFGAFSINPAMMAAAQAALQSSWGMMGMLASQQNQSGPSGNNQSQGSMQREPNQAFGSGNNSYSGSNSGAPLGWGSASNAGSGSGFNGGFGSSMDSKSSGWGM

Key:
TDP-43 (Mus musculus) = TDP-43 (Mus musculus) (UniProt Q921F2); assay: binding assay; conditions: reanalysis of public CLIP-seq; motif enriched in RefGene and repeat targets; protein in cells; protein details: endogenous, CLIP; only the motif is given
[1] = target: TDP-43 (Rattus norvegicus) (UniProt A0A8I6GLU8); assay: binding assay; conditions: reanalysis of public RIP-seq; motif equivalently enriched in RefGene and repeat targets; protein in cells; only the motif is given

Sequence: UGUGU [UGUGU pentamer motif]
- binding result (TDP-43 (Mus musculus)): binds
- binding result [1]: binds
